Data on 4 substances can be found in paper PMC3510508, “Rbg1–Tma46 dimer structure reveals new functional domains and their role in polysome recruitment” (Nucleic Acids Research, 2012).

One assay has as its target T1, TAP-tagged Tma46 (yeast) (UniProt Q12000).
T1 sequence: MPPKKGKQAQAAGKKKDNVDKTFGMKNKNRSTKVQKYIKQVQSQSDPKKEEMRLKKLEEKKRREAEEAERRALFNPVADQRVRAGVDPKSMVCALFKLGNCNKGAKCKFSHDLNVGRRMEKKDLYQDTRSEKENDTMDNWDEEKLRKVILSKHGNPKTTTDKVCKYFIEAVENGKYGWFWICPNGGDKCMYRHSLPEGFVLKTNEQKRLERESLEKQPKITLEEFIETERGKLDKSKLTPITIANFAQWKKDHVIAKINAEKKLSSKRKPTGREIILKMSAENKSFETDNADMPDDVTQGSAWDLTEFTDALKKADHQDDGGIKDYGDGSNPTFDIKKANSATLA
The assay can be described thus: co-IP; extracts of Δrbg1 yeast expressing Tma46–TAP and HA-tagged Rbg1 variants; Tma46–TAP precipitated on IgG beads, 4°C 2 h, 150 mM NaCl; western blot of HA. On the technique in general: Immunoblotting shows a protein as a band on a membrane.

A further assay has as its target T2, TAP-tagged Rbg1 (yeast) (UniProt P39729).
T2 sequence: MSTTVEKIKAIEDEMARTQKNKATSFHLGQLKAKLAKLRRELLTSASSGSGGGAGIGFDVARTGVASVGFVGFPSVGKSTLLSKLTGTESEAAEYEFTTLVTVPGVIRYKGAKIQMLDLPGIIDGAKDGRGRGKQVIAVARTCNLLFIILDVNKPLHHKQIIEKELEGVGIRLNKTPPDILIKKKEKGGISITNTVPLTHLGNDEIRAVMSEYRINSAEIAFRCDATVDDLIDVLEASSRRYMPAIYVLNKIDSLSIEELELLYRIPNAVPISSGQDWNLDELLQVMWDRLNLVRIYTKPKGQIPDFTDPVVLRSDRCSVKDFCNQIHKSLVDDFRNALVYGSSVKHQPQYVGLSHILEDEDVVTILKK
Briefly: co-IP; extracts of Δtma46 yeast with TAP-tagged Rbg1 and HA-Tma46 variants on a centromeric plasmid; Rbg1-TAP precipitated on IgG beads, 4°C 2 h, 150 mM NaCl; western blot of HA.

No constants are given. Whether binding was seen depends on the method and setting. In cells and extracts the contact can be indirect. Binding can be weak; no strength is given. Sequences can lack the tags named with a protein.

For “HA-tagged Rbg1 lacking the HTH domain (yeast) (domain or fragment)”, the binding result with TAP-tagged Tma46 (yeast) is “binds”.

Take “HA-tagged Rbg1 lacking the S5D2L domain (from UniProt P39729) (enzyme)”: in the assay with TAP-tagged Tma46 (yeast), the binding result is listed as “binds”.

As for “HA-tagged Rbg1 lacking the TGS domain (yeast) (domain or fragment)”, the binding result with TAP-tagged Tma46 (yeast) is recorded as “no binding”.

For “HA-tagged Tma46 lacking helix α1 (from UniProt Q12000)”, the binding entry in the assay with TAP-tagged Rbg1 (yeast) was “binds weakly”.
